Experimental data as given in patent publication US7476517B2, “Virus like particles, their preparation and their use preferably in pharmaceutical screening and functional genomics” (Evotec AG, priority 1999, dated 2009).
For at least one compound, name, drawing or mass did not settle the structure.

Tested on: CAMP responsive element regulated Gag-EGFP reporter in CHO cells
Assay: Gag-EGFP reporter assay (CRE-controlled reporter, fluorescence microscopy / FIDA)
Assay type: cell-based
Settings: CHO cells stably transfected with CRE/TK promoter reporter, 2 μM forskolin, 24 hours

## C=C[C@@]1(C)CC(=O)[C@]2(O)[C@@]3(C)[C@@H](O)CCC(C)(C)[C@@H]3[C@H](O)[C@H](OC(C)=O)[C@@]2(C)O1 [Forskolin, forskolin]
  induction of Gag fusion reporter gene product: results in the synthesis of the Gag fusion reporter gene product
